{"sequences": {"note": "Sequences of proteins named here, by UniProt entry; tags and fusion partners are left off.", "UniProt P69332": "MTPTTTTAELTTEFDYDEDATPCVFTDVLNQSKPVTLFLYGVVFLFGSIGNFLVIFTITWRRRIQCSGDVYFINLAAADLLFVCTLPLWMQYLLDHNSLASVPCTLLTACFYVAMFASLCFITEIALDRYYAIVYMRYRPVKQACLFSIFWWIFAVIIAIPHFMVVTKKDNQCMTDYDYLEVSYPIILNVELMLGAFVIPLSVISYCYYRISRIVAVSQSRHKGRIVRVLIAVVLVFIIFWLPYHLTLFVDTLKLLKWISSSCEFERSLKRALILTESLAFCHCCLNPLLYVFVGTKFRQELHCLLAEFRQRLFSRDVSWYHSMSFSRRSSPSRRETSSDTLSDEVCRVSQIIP"}, "source": "paper PMC4374719", "target": "human cytomegalovirus US28, HA-tagged (human cytomegalovirus (HCMV)) (UniProt P69332)", "assay": "co-IP; 293T cells transfected with SERCA2(b) and an HA-tagged viral GPCR; NP40 buffer (50 mM Tris-HCl pH 7.4, 150 mM NaCl, 1% NP-40, 5 mM EDTA); HA-agarose at 4°C for 4 h; immunoblot", "note": "Results are given in words; binding and its absence hold for the method and conditions named. In cells and extracts the contact can be indirect. Some results given as binding are weak or reduced against the parent protein; the word gives no strength.", "data": [{"substance": "SERCA2b, expressed from a plasmid in 293T cells (from UniProt P16615-1 1-1042) (enzyme)", "values": [{"measurement": "binding", "value": "binds"}]}]}
